Results are given in words; binding and its absence hold for the method and conditions named. In cells and extracts the contact can be indirect. Some entries that bind do so weakly or less than the wild type.
Target: T1, microfibril associated protein 5 (MFAP5) (mouse (endogenous in ImdyCAFs)) (UniProt Q9QZJ6)
T1 sequence: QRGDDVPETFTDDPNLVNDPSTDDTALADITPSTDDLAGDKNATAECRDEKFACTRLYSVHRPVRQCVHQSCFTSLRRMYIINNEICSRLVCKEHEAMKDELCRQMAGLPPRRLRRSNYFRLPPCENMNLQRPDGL
Test: co-IP; immunoprecipitation from ImdyCAFs followed by western blot; which protein was precipitated is not told

binding: binds
B1: Reticulocalbin 2 (RCN2) (protein, UniProt Q8BP92 26-320)
chain: SKAEELHYPQGEHRADYDREALLGVQEDVDEYVKLGHEEQQRRLQSIIKKIDSDSDGFLTENELSQWIQMSFKHYAMQEAKQQFVEYDKNSDGAVTWDEYNIQMYDRVIDFDENTALDDTEEGSFRQLHLKDKKRFEKANQDSGPGLSLEEFIAFEHPEEVDYMTEFVIQEALEEHDKNGDGFVSLEEFLGDYRRDPTANEDPEWILVEKDRFVNDYDKDNDGRLDPQELLSWVVPNNQGIAQEEALHLIDEMDLNSDKKLSEEEILENQDLFLTSEATDYGRQLHDDYFYHDEL
